# Screen size: about 330,000 compounds; about 100 (0.03%) were called active. Inconclusive means that the source gave no clear call. Such entries were picked first, then a sample of the others. Calls come from the whole dose curve; as a rule, active = well fitted inhibition curve with a large enough effect; inconclusive = small, poorly fitted or top-dose-only effect; inactive = flat fitted curve, though single readings scatter. Where the call is inconclusive, the potency comes from a doubtful curve fit.
# Test system: Chaperonin Mm-Cpn (Methanococcus maripaludis)
# Assay: Inhibitors of TCP-1 ring complex (TRiC) of Methanococcus maripaludis (MmCpn): qHTS; note: nearly all actives have a fitted effect of over 80% in size;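 for potency: enzyme at 25 nM with ATP substrate at 10 µM during the reaction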
# Conditions: purified Mm-Cpn ATPase, ADP Transcreener TR-FRET; activity, negative = inhibition: at the top concentration
# Summary of the method: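 Reaction buffer contained 30 mM Tris pH 7.4, 100 mM KCl, 5 mM MgCl2 and 1 mM DTT. Mm-CPN (25 nM final) hydrolysed 10 uM ATP over 30 min at 37°C; ADP was read by HTRF.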
# % is set by controls: 0 for no effect and ±100 for the full control effect; potency is the fitted concentration of half-maximal effect.
SMILES,"activity, negative = inhibition",Potency
O=C(C1CCCN(Cc2ccccc2)C1)N1CCCCC1 (stereo unspecified),inactive: -1.44%,–
Cc1cccc(NC(=O)CCS(=O)(=O)c2cccc3nsnc23)c1C,–,"inconclusive: 39.8 µM [inhibitor, single point]"
C[C@@H]1C(c2cccc(Cl)c2)=NN(c2ccc(Br)cc2)[C@H]1C(=O)N1CCOC1=O,–,"inconclusive: 112 µM [inhibitor, single point]"
O=[N+]([O-])c1ccc(CSc2ccc(S(=O)(=O)N3CCCCC3)cn2)cc1,–,"inconclusive: 316 µM [inhibitor, partial curve, poor fit]"
Cc1nnc(SCc2ccc(C(=O)Nc3cc(Cl)ccc3C)cc2)s1,inactive: 1.38%,–
O=C(Nc1ccccc1SCC1CSc2nc3ccccc3c(=O)n21)c1cccc(Cl)c1 (stereo unspecified),inactive: -2.07%,–
Cc1cc(C)c(NC(=O)C2=COCCO2)c(C)c1,–,"inconclusive: 14.1 µM [inhibitor, single point]"
COc1cccc(NC(=O)CN(C)C(C)C(=O)Nc2ccc(C(C)=O)cc2)c1 (stereo unspecified),–,"inconclusive: 10 µM [inhibitor, single point]"
CC(NC(=O)/C(C#N)=C/c1ccc(OCC(=O)O)cc1)c1ccccc1 (stereo unspecified),inactive: 0.0531%,–
COc1ccc(CCNC2CC(=O)N(CCc3ccccc3)C2=O)cc1 (stereo unspecified),inactive: -7.09%,–
O=C(Nc1ccc(Br)c2ccccc12)c1ccc2ccccc2c1O,–,"inconclusive: 178 µM [inhibitor, partial curve, poor fit]"
CCCc1nc2scc(-c3ccc(C)cc3)c2c(=O)n1N,–,"inconclusive: 79.4 µM [inhibitor, single point]"
COc1ccc(-c2csc(NC(=O)CS(=O)(=O)c3ccccc3)n2)cc1,–,"inconclusive: 89.1 µM [inhibitor, partial curve, poor fit]"
COc1ccc(/C=N/N=C2/NC(=O)C(CC(=O)NC(C)C)S2)cc1 (stereo unspecified),inactive: 0.442%,–
COc1ccc(C(=O)COC(=O)c2sc(C)nc2C)cc1Cl,–,"inconclusive: 63.1 µM [inhibitor, single point]"
COc1cc(C2NC(=O)NC(C)=C2C(=O)Nc2cccc(C)c2C)cc(OC)c1OC (stereo unspecified),–,"inconclusive: 22.4 µM [inhibitor, single point]"
COCCCNC(=O)CSc1nc2ccccc2c(=O)n1CCCN1CCCCC1,–,"inconclusive: 22.4 µM [inhibitor, single point]"
NC(Cc1cccc2nsnc12)C(=O)O (stereo unspecified),–,"inconclusive: 282 µM [inhibitor, partial curve, poor fit]"
O=C1Nc2ccccc2/C1=N\N=C\c1ccc(O)c(O)c1,inactive: -2.29%,–
Cn1c(CN2CCCC2)nc2cc(NC(=O)c3ccco3)ccc21,inactive: 0.121%,–
Nc1ccc(-c2nc3ccc(N)cc3s2)cc1,–,"inconclusive: 200 µM [inhibitor, partial curve]"
Brc1c(CSc2nc3ccccc3o2)nc2ncccn12,–,"inconclusive: 282 µM [inhibitor, partial curve, poor fit]"

SMILES,"activity, negative = inhibition",Potency
COc1ccc(C(CNC(=O)c2ccccc2SC)N(C)C)cc1 (stereo unspecified),–,"inconclusive: 11.2 µM [inhibitor, single point]"
CN(C)CCCSc1nc(-c2ccccc2)nc2c1CCC2,–,"inconclusive: 25.1 µM [inhibitor, single point]"
O=[N+]([O-])c1cc(-c2nc3nc4ccccc4nc3n2CCc2ccccc2)cc([N+](=O)[O-])c1,–,"inconclusive: 20 µM [inhibitor, single point]"
CCCc1cc(=O)n2[nH]c(C(F)(F)F)nc2n1,–,"inconclusive: 17.8 µM [inhibitor, single point]"
Cc1cc2nc(-c3ccc(SCC(=O)Nc4ccc(S(=O)(=O)N5CCCC5)cc4)nc3)[nH]c2cc1C,–,"inconclusive: 50.1 µM [inhibitor, partial curve, poor fit]"
O=C(O)Cc1ccc(NC(=O)Nc2ccc(Br)cc2)cc1,inactive: 1.95%,–
CN(C)S(=O)(=O)c1ccc(C(=O)Nc2nc(-c3cc4ccccc4o3)cs2)cc1,–,"inconclusive: 200 µM [inhibitor, partial curve, poor fit]"
O=C(N1CCCC1)N1CCN(c2ncnc3c(-c4ccc(Cl)cc4)nsc23)CC1,–,"inconclusive: 25.1 µM [inhibitor, single point]"
COc1ccc(C(=O)Nc2nc(-c3ccccn3)cs2)cc1S(=O)(=O)N1CCOCC1,inactive: -15.9%,–
CCOC(=O)c1cc2n(n1)C(C(F)(F)F)CC(C)N2 (stereo unspecified),inactive: 1.58%,–
COC(=O)c1c(-c2ccc(OC)cc2)sc2ccc(OC)cc12,–,active: 44.7 µM
COc1ccc(/C=C/C(=O)Nc2ccc(-n3nncc3-c3ccccc3)cc2)cc1OC,–,"inconclusive: 89.1 µM [inhibitor, single point]"
CN1C(=O)C(CC(=O)NC2CCCCC2)N(C)C1=O (stereo unspecified),–,"inconclusive: 8.91 µM [inhibitor, single point]"
CNC(=O)c1cnn(-c2nc(-c3ccc(OC)cc3)cs2)c1C(F)(F)F,–,"inconclusive: 100 µM [inhibitor, single point]"
CN(CC(=O)NCCc1ccccc1)S(=O)(=O)c1ccc(Br)s1,–,"inconclusive: 100 µM [inhibitor, single point]"
CCCCCCC1CC(/C(C)=N\NC(N)=O)OC1=O (stereo unspecified),–,"inconclusive: 89.1 µM [inhibitor, single point]"
CCCCn1c(=O)[nH]c(=O)c2c1nc(CN1C(=O)c3ccccc3S1(=O)=O)n2CCC,–,"inconclusive: 63.1 µM [inhibitor, single point]"
CCCN(CC(=O)Nc1ccccc1C)C(=O)c1ccc2[nH]c3c(c2c1)CC(C)CC3 (stereo unspecified),–,"inconclusive: 79.4 µM [inhibitor, partial curve]"
COC(=O)c1ccc(NC(=O)C2CCCO2)cc1 (stereo unspecified),–,"inconclusive: 56.2 µM [inhibitor, single point]"
Cc1ccc(C(=O)NC(=S)Nc2ccc(-c3ccc(CO)o3)cc2)cc1,–,"inconclusive: 112 µM [inhibitor, single point]"
COCCNC(=O)CC(=O)N/N=C/c1cccc(C(=O)OC)c1,–,"inconclusive: 11.2 µM [inhibitor, single point]"
Cc1cc(C)nc(CCNC(=O)C2CCC(=O)N(Cc3ccccc3F)C2)n1 (stereo unspecified),–,"inconclusive: 20 µM [inhibitor, single point]"

# In the list so far, these contain a thiophene ring, fused or not:
SMILES,"activity, negative = inhibition",Potency
CCCc1nc2scc(-c3ccc(C)cc3)c2c(=O)n1N,–,"inconclusive: 79.4 µM [inhibitor, single point]"
COC(=O)c1c(-c2ccc(OC)cc2)sc2ccc(OC)cc12,–,active: 44.7 µM
CN(CC(=O)NCCc1ccccc1)S(=O)(=O)c1ccc(Br)s1,–,"inconclusive: 100 µM [inhibitor, single point]"

# (more compounds)

SMILES,"activity, negative = inhibition",Potency
O=C(CSc1ccc2nnc(-c3cccnc3)n2n1)Nc1cccc(F)c1,–,"inconclusive: 89.1 µM [inhibitor, single point]"
O=C(Oc1ccc(NC(=O)c2cc3c(cc2Br)OCO3)cc1)c1ccccc1,–,"inconclusive: 15.8 µM [inhibitor, single point]"
O=C1C2CCCCN2C(=O)N1CCCCN1CCN(c2ccc(F)cc2)CC1 (stereo unspecified),–,"inconclusive: 5.62 µM [inhibitor, single point]"
O=C(c1ccccc1Cc1ccccc1)N1CCN(S(=O)(=O)c2ccccc2F)CC1,–,"inconclusive: 17.8 µM [inhibitor, single point]"
CCN(CC(=O)Nc1c(F)cccc1F)C(=O)c1cc2ccccc2oc1=O,–,"inconclusive: 25.1 µM [inhibitor, single point]"
COc1cc(/C=C/C(=O)OCC(=O)NCc2ccco2)ccc1O,inactive: 0.246%,–
COc1ccc(C2CC(c3cccs3)=NN2C(=O)CSc2nc(=O)n3ccc(C)cc3n2)cc1 (stereo unspecified),–,"inconclusive: 112 µM [inhibitor, partial curve, poor fit]"
CCOCCCNC(=O)c1cc(Sc2ccc(F)cc2)nc2ccccc12,–,"inconclusive: 22.4 µM [inhibitor, single point]"
CN(c1cccc(Cl)c1)S(=O)(=O)c1cccc(C(=O)NC2=NCCS2)c1,–,"inconclusive: 100 µM [inhibitor, single point]"
CC(C)NC(=O)CC(=O)N/N=C/c1cccs1,–,"inconclusive: 100 µM [inhibitor, single point]"
CCOC(=O)C1CCCN(c2cc(NCCCO)c([N+](=O)[O-])c3nonc23)C1 (stereo unspecified),–,"inconclusive: 70.8 µM [inhibitor, single point]"
Cc1cc(C)c(OCC(=O)N(Cc2cccs2)C2CCS(=O)(=O)C2)c(C)c1 (stereo unspecified),–,"inconclusive: 22.4 µM [inhibitor, single point]"
O=C(CCCCCn1c(=S)[nH]c2ccc(N3CCOCC3)cc2c1=O)NCc1ccccc1,–,"inconclusive: 112 µM [inhibitor, single point]"
CCc1cc(C(=O)N(C)CC(=O)N(CC(C)C)c2c(N)n(CC(C)C)c(=O)[nH]c2=O)sc1C,–,"inconclusive: 79.4 µM [inhibitor, single point]"
COc1ccc(NC(=O)c2cc3c(=O)n(C)c4ccccc4c3n2C)cc1Cl,–,"inconclusive: 708 µM [inhibitor, partial curve, poor fit]"
Cc1ccc(Cn2c(=O)oc3ccccc32)cc1,–,"inconclusive: 11.2 µM [inhibitor, single point]"
CCn1ncc(C2=NOC(C(=O)Nc3cccc(C(C)=O)c3)C2)c1C (stereo unspecified),–,"inconclusive: 14.1 µM [inhibitor, single point]"
CC(C)NC(=O)c1cc2c(C(F)(F)F)nn(C)c2s1,–,"inconclusive: 10 µM [inhibitor, single point]"
COc1ccccc1NC(=O)c1nnn(Cc2ccccc2)c1NC(=O)C(F)(F)F,–,"inconclusive: 63.1 µM [inhibitor, single point]"
O=C1NC(=O)C(c2ccccc2[N+](=O)[O-])=C1Nc1ccc(O)c(Cl)c1,inactive: -0.159%,–
CCOC(=O)c1cc(C(=O)OCC)c2cc(Br)ccc2n1,–,"inconclusive: 112 µM [inhibitor, partial curve, poor fit]"
O=C(CSc1nnc(CNC(=O)c2c(F)cccc2Cl)o1)Nc1ccc2c(c1)OCCO2,inactive: -8.71%,–

# Looked up one by one from above:
SMILES,"activity, negative = inhibition",Potency
CC(C)NC(=O)c1cc2c(C(F)(F)F)nn(C)c2s1,–,"inconclusive: 10 µM [inhibitor, single point]"
COc1ccc(NC(=O)c2cc3c(=O)n(C)c4ccccc4c3n2C)cc1Cl,–,"inconclusive: 708 µM [inhibitor, partial curve, poor fit]"
COc1ccc(C2CC(c3cccs3)=NN2C(=O)CSc2nc(=O)n3ccc(C)cc3n2)cc1 (stereo unspecified),–,"inconclusive: 112 µM [inhibitor, partial curve, poor fit]"

# From PubChem BioAssay AID504842 (National Center for Advancing Translational Sciences (NCATS), 2011)
